This note sets out measurements from doi:10.1101/2023.02.23.529587 (bioRxiv, 2023).

This test addresses T1, full-length KGD from Mycobacterium smegmatis (Mycobacterium smegmatis) (UniProt A0R2B1).
T1 sequence: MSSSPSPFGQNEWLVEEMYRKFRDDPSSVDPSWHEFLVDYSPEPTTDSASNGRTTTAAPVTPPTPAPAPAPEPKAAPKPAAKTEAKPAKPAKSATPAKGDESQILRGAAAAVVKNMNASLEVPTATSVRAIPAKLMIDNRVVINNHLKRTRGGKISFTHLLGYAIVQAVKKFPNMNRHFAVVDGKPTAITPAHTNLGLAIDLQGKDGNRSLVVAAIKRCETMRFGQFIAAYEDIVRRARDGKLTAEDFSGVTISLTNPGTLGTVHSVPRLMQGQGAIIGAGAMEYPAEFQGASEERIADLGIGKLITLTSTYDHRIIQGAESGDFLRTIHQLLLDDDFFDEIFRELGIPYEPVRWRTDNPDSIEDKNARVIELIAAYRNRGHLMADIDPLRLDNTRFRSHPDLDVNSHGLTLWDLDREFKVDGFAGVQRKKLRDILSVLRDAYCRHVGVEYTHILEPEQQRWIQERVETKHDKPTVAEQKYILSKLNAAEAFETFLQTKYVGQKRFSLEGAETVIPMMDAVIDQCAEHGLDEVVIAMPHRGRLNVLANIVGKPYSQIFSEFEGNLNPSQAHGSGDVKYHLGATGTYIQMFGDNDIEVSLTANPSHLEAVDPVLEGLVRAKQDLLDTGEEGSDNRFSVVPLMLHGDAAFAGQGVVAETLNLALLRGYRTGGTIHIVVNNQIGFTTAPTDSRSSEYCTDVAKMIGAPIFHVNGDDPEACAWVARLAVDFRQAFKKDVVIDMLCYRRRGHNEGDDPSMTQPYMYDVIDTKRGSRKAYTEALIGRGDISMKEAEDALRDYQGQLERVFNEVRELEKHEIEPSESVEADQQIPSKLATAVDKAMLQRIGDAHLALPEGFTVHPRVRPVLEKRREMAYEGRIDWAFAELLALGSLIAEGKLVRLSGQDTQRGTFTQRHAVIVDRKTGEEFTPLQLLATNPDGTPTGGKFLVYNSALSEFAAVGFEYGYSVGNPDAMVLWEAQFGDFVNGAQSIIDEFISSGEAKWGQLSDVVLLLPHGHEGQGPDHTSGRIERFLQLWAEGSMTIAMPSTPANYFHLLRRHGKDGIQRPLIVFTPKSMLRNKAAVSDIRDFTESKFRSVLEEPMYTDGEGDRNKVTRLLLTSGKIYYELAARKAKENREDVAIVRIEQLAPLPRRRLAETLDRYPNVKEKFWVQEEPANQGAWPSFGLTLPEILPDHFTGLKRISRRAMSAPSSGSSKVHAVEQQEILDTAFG
The test is described as follows: crystal structure.

These are yes or no findings as the source states them, for the method shown. Some entries that bind do so weakly or less than the wild type. Tags and fused reporters may be left off the sequences shown.

B1: M. smegmatis GarA (protein, UniProt A0QYG2 1-158)
chain: MTDKDSNLGADQSEDVTVETTSVFRADFLNELDAPAAAGTEGAVSGVEGLPSGSALLVVKRGPNAGSRFLLDQPTTSAGRHPDSDIFLDDVTVSRRHAEFRLEGGEFQVVDVGSLNGTYVNREPVDSAVLANGDEVQIGKFRLVFLTGPKSDDSGSNA
For the molecule B1, the binding result was “binds”.
